The target of assay [1] is T1, Latexin (LXN), endogenous in HUVECs (human (endogenous in HUVEC)) (UniProt Q9BS40).
T1 sequence: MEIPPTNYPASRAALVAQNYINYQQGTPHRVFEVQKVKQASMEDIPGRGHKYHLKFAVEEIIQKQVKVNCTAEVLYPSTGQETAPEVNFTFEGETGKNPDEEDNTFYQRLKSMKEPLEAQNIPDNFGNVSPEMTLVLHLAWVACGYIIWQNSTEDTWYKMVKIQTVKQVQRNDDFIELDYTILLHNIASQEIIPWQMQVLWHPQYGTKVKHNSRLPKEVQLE
The assay is described as follows: co-IP; endogenous proteins in HUVEC lysate; IP with anti-LXN antibody, 10% SDS-PAGE, immunoblotting. Background: In western blotting, separated proteins are transferred to a membrane and probed.

Amino acid sequences for entries named in this document (tags omitted).
UniProt P21333: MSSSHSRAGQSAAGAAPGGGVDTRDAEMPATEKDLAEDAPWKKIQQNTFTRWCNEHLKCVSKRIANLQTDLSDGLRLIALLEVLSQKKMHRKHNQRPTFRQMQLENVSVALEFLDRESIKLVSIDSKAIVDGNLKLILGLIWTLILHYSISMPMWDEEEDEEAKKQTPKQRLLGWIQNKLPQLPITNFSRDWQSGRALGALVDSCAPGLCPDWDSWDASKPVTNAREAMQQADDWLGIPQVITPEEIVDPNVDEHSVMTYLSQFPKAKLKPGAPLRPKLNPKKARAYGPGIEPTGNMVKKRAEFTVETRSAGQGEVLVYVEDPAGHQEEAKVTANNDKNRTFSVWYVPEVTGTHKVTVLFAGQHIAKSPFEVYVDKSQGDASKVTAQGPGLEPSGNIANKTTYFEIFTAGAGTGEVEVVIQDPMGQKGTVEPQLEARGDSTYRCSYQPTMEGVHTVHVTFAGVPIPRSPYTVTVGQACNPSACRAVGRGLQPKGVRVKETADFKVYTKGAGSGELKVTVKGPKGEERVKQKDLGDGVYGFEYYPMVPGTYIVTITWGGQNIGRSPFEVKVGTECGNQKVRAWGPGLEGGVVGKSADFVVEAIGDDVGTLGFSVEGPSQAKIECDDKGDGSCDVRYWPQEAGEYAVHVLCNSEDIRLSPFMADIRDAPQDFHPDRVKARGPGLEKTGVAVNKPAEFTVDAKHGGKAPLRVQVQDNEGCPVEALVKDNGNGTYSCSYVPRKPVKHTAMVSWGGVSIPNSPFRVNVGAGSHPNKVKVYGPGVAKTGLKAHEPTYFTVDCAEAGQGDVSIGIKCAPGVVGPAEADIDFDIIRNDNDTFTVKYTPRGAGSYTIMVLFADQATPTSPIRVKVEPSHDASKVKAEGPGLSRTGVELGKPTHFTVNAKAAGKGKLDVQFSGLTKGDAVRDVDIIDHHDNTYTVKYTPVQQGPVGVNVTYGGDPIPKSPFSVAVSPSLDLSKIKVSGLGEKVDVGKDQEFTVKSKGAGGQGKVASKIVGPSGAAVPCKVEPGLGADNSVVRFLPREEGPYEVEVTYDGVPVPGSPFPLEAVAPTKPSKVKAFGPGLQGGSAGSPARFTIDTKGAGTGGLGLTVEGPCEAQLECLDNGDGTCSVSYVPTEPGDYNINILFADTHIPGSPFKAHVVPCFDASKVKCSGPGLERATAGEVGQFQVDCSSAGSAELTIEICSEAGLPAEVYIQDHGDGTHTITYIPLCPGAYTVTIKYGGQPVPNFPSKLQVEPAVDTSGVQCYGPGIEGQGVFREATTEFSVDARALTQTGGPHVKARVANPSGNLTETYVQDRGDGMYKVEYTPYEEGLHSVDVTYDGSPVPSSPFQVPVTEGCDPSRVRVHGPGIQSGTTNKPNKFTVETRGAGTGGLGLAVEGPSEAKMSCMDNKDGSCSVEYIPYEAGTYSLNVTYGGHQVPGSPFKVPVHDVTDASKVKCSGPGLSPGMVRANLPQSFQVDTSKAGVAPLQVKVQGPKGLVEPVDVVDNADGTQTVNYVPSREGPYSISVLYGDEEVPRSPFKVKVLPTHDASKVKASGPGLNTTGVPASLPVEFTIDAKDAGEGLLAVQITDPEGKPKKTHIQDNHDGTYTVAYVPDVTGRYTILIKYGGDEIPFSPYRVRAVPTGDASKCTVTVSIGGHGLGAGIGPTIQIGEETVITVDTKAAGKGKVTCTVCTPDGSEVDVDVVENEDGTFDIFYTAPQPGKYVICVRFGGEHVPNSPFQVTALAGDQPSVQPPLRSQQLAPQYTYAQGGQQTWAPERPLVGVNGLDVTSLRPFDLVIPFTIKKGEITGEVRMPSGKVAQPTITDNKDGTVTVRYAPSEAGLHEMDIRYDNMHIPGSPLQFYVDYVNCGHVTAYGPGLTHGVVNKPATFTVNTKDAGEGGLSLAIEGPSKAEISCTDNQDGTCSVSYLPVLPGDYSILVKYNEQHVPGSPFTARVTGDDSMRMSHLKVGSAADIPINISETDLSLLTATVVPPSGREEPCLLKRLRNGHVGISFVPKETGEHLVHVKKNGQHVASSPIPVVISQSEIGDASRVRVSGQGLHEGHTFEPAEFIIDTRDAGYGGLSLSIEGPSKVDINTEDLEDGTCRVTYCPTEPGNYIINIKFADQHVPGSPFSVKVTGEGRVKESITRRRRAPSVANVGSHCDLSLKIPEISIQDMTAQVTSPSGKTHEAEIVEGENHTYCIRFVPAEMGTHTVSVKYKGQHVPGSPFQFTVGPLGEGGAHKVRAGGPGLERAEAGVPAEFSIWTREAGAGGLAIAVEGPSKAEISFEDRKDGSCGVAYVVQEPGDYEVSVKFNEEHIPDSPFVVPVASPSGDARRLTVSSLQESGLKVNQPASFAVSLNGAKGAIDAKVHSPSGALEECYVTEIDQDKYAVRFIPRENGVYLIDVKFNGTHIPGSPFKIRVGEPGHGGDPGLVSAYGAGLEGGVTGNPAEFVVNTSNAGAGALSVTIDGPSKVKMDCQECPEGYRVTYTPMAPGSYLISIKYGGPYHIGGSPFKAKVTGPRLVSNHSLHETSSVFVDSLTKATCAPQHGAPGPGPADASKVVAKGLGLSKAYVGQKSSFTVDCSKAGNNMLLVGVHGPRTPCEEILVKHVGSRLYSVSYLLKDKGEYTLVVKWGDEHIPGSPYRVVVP

For the next assay, the target named is T2, Flag-LXN (UniProt Q9BS40).
T2 sequence: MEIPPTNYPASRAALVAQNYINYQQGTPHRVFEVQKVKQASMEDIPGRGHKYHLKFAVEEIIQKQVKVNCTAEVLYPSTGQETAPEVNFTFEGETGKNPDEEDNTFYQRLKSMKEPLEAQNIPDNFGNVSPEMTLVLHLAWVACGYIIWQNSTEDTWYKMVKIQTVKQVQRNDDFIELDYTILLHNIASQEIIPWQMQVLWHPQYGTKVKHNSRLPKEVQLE
The assay can be described thus: co-IP; 293T cells co-transfected with HA-FLNA and Flag-LXN expression vectors; IP with anti-HA or anti-Flag antibody, Western blot.

A further assay concerns the target HA-FLNA (UniProt P21333). The assay is described as above.

Results are given in words; binding and its absence hold for the method and conditions named. In cells and extracts the contact can be indirect. Some entries that bind do so weakly or less than the wild type. For part of these data: Where a sequence is shown, tags or fusion partners need not be part of it.

Consider “Filamin A (FLNA), endogenous in HUVECs (from UniProt P21333 1-2647)”, for which the binding entry in assay [1] was “binds”. HA-FLNA (from UniProt P21333 1-2647): in the assay with Flag-LXN, the binding result was “binds”.

B1: Flag-LXN (protein, UniProt Q9BS40 1-222)
chain: MEIPPTNYPASRAALVAQNYINYQQGTPHRVFEVQKVKQASMEDIPGRGHKYHLKFAVEEIIQKQVKVNCTAEVLYPSTGQETAPEVNFTFEGETGKNPDEEDNTFYQRLKSMKEPLEAQNIPDNFGNVSPEMTLVLHLAWVACGYIIWQNSTEDTWYKMVKIQTVKQVQRNDDFIELDYTILLHNIASQEIIPWQMQVLWHPQYGTKVKHNSRLPKEVQLE
As to B1, the binding entry in the assay with HA-FLNA is reported as “binds”.

(Values after publication PMC8278077.)
